Results from paper PMC11005723, “Development of Complementary Photo‐arginine/lysine to Promote Discovery of Arg/Lys hPTMs Interactomes” (Advanced Science, 2024).
The source gives many values for each of these; only a part stands here.

Test system: HEK293T nuclear lysates
Assay: SILAC‐based pull‐down proteomics H4K5acK8ac/H4K5 (probes 8/5)
Format: binding, human
Conditions: for B6 log2 (H4K5ac8ac/H4K5): run B6; for A6 log2 (H4K5ac8ac/H4K5): run A6
[1] = pulled-down protein FAM76B (F5GX09)
[2] = pulled-down protein FBXO22 (H3BTH6)
[3] = pulled-down protein FHL3 (Q13643)
[4] = pulled-down protein HSD17B10 (Q99714)
[5] = pulled-down protein LMNA (P02545)
[6] = pulled-down protein LRRC40 (Q9H9A6)
[7] = pulled-down protein MSH2 (P43246)
[8] = pulled-down protein MSH3 (A0A590UKC9)
[9] = pulled-down protein MYBL2 (P10244)
[10] = pulled-down protein NDRG1 (Q92597)
[11] = pulled-down protein NIPBL (A0A590UJS4)
[12] = pulled-down protein NTHL1 (P78549)
[13] = pulled-down protein NUDC (Q9Y266)
[14] = pulled-down protein NUDCD1 (Q96RS6)
[15] = pulled-down protein ORC3 (Q9UBD5)
[16] = pulled-down protein PAXIP1 (Q6ZW49)
[17] = pulled-down protein PCBP1 (Q15365)
[18] = pulled-down protein PFAS (O15067)
[19] = pulled-down protein PLS3 (A0A0A0MSQ0)
[20] = pulled-down protein PPIA (P62937)
[21] = pulled-down protein PRDX3 (P30048)
[22] = pulled-down protein PREP (P48147)
[23] = pulled-down protein PRPS1 (B1ALA9)
[24] = pulled-down protein RNF20 (Q5VTR2)
[25] = pulled-down protein ROCK2 (E9PF63)
[26] = pulled-down protein RPL24 (C9JXB8)
[27] = pulled-down protein SEPT7 (G3V1Q4)
[28] = pulled-down protein SERBP1 (Q8NC51)
[29] = pulled-down protein SH3PXD2B (A1X283)
[30] = pulled-down protein SLC25A5 (P05141)
[31] = pulled-down protein SLK (Q9H2G2)
[32] = pulled-down protein SMNDC1 (O75940)
[33] = pulled-down protein SUGT1 (Q9Y2Z0)
[34] = pulled-down protein THOP1 (P52888)
[35] = pulled-down protein TIPRL (O75663)
[36] = pulled-down protein TMPO (P42166)
[37] = pulled-down protein TUBB2B (Q9BVA1)
[38] = pulled-down protein TUFM (P49411)
[39] = pulled-down protein TXN (P10599)
[40] = pulled-down protein U2SURP (E7ET15)
[41] = pulled-down protein UQCRC1 (P31930)
[42] = pulled-down protein VIM (P08670)
[43] = pulled-down protein XPO1 (O14980)
[44] = pulled-down protein YEATS4 (F8W0J4)
[45] = pulled-down protein ZC3H4 (M0QY97)

## probe 8: H4K5acK8ac peptide probe with photo‐arginine R(dz) and K(biotin) (SGRGKGGKGLGKGGK; photo-arginine R(dz) at 3; acetyl-lysine at 5; acetyl-lysine at 8; K(biotin) at 15)
pulled-down protein EZR (E7EQR4)
  B6 log2 (H4K5ac8ac/H4K5): 0.5872
[1]
  A6 log2 (H4K5ac8ac/H4K5): 0.05077
  B6 log2 (H4K5ac8ac/H4K5): 0.8339
[2]
  A6 log2 (H4K5ac8ac/H4K5): 0.4487
  B6 log2 (H4K5ac8ac/H4K5): 0.9654
[3]
  A6 log2 (H4K5ac8ac/H4K5): 0.5624
  B6 log2 (H4K5ac8ac/H4K5): 1.039
[4]
  A6 log2 (H4K5ac8ac/H4K5): 0.9255
  B6 log2 (H4K5ac8ac/H4K5): 0.6778
[5]
  A6 log2 (H4K5ac8ac/H4K5): 0.4719
  B6 log2 (H4K5ac8ac/H4K5): 0.6262
[6]
  A6 log2 (H4K5ac8ac/H4K5): 0.5921
  B6 log2 (H4K5ac8ac/H4K5): 0.6614
[7]
  A6 log2 (H4K5ac8ac/H4K5): 0.1218
  B6 log2 (H4K5ac8ac/H4K5): 1.07
[8]
  A6 log2 (H4K5ac8ac/H4K5): 0.4319
  B6 log2 (H4K5ac8ac/H4K5): 0.628
[9]
  A6 log2 (H4K5ac8ac/H4K5): -0.2371
  B6 log2 (H4K5ac8ac/H4K5): 1.076
[10]
  A6 log2 (H4K5ac8ac/H4K5): -0.08023
  B6 log2 (H4K5ac8ac/H4K5): 0.8519
[11]
  A6 log2 (H4K5ac8ac/H4K5): 0.8853
  B6 log2 (H4K5ac8ac/H4K5): 0.5454
[12]
  A6 log2 (H4K5ac8ac/H4K5): 0.4814
  B6 log2 (H4K5ac8ac/H4K5): 2.0452
[13]
  A6 log2 (H4K5ac8ac/H4K5): 0.8034
  B6 log2 (H4K5ac8ac/H4K5): 0.5747
[14]
  A6 log2 (H4K5ac8ac/H4K5): 1.864
  B6 log2 (H4K5ac8ac/H4K5): 0.5692
[15]
  A6 log2 (H4K5ac8ac/H4K5): 0.9501
  B6 log2 (H4K5ac8ac/H4K5): 0.5852
[16]
  A6 log2 (H4K5ac8ac/H4K5): -0.6594
  B6 log2 (H4K5ac8ac/H4K5): 1.242
[17]
  A6 log2 (H4K5ac8ac/H4K5): 0.5482
  B6 log2 (H4K5ac8ac/H4K5): 0.5681
[18]
  A6 log2 (H4K5ac8ac/H4K5): 0.7266
  B6 log2 (H4K5ac8ac/H4K5): 0.6378
[19]
  A6 log2 (H4K5ac8ac/H4K5): 0.6997
  B6 log2 (H4K5ac8ac/H4K5): 0.7142
[20]
  A6 log2 (H4K5ac8ac/H4K5): 0.4131
  B6 log2 (H4K5ac8ac/H4K5): 0.5572
[21]
  A6 log2 (H4K5ac8ac/H4K5): 0.2174
  B6 log2 (H4K5ac8ac/H4K5): 0.6425
[22]
  A6 log2 (H4K5ac8ac/H4K5): 0.9426
  B6 log2 (H4K5ac8ac/H4K5): 0.9988
[23]
  A6 log2 (H4K5ac8ac/H4K5): 0.3703
  B6 log2 (H4K5ac8ac/H4K5): 0.6924
[24]
  A6 log2 (H4K5ac8ac/H4K5): 0.2058
  B6 log2 (H4K5ac8ac/H4K5): 1.917
[25]
  A6 log2 (H4K5ac8ac/H4K5): 0.5783
  B6 log2 (H4K5ac8ac/H4K5): 0.8707
[26]
  A6 log2 (H4K5ac8ac/H4K5): -1.085
  B6 log2 (H4K5ac8ac/H4K5): 0.6319
[27]
  A6 log2 (H4K5ac8ac/H4K5): 0.404
  B6 log2 (H4K5ac8ac/H4K5): 1.872
[28]
  A6 log2 (H4K5ac8ac/H4K5): 0.7316
  B6 log2 (H4K5ac8ac/H4K5): 0.5964
[29]
  A6 log2 (H4K5ac8ac/H4K5): 0.8304
  B6 log2 (H4K5ac8ac/H4K5): 0.5788
[30]
  A6 log2 (H4K5ac8ac/H4K5): 0.5514
  B6 log2 (H4K5ac8ac/H4K5): 0.5877
[31]
  A6 log2 (H4K5ac8ac/H4K5): 0.3398
  B6 log2 (H4K5ac8ac/H4K5): 0.9615
[32]
  A6 log2 (H4K5ac8ac/H4K5): 0.6849
  B6 log2 (H4K5ac8ac/H4K5): 0.8242
[33]
  A6 log2 (H4K5ac8ac/H4K5): 0.8993
  B6 log2 (H4K5ac8ac/H4K5): 0.8405
[34]
  A6 log2 (H4K5ac8ac/H4K5): 0.4884
  B6 log2 (H4K5ac8ac/H4K5): 0.5905
[35]
  A6 log2 (H4K5ac8ac/H4K5): 0.6781
  B6 log2 (H4K5ac8ac/H4K5): 0.7898
[36]
  A6 log2 (H4K5ac8ac/H4K5): 0.9296
  B6 log2 (H4K5ac8ac/H4K5): 0.7162
[37]
  A6 log2 (H4K5ac8ac/H4K5): 0.3511
  B6 log2 (H4K5ac8ac/H4K5): 0.679
[38]
  A6 log2 (H4K5ac8ac/H4K5): 0.744
  B6 log2 (H4K5ac8ac/H4K5): 0.6748
[39]
  A6 log2 (H4K5ac8ac/H4K5): 1.055
  B6 log2 (H4K5ac8ac/H4K5): 0.9516
[40]
  A6 log2 (H4K5ac8ac/H4K5): -0.3687
  B6 log2 (H4K5ac8ac/H4K5): 1.451
[41]
  A6 log2 (H4K5ac8ac/H4K5): 0.6791
  B6 log2 (H4K5ac8ac/H4K5): 0.7579
[42]
  A6 log2 (H4K5ac8ac/H4K5): 0.6046
  B6 log2 (H4K5ac8ac/H4K5): 0.5917
[43]
  A6 log2 (H4K5ac8ac/H4K5): 0.481
  B6 log2 (H4K5ac8ac/H4K5): 0.5985
[44]
  A6 log2 (H4K5ac8ac/H4K5): 2.181
  B6 log2 (H4K5ac8ac/H4K5): 2.927
[45]
  A6 log2 (H4K5ac8ac/H4K5): -0.08627
  B6 log2 (H4K5ac8ac/H4K5): 1.141
